The numbers were not newly measured in US20170065561A1, “METHODS OF CANCER THERAPY” (CAMBRIDGE ENTERPRISE LIMITED, priority 2014, published 2017), which cites them from elsewhere.

The series has as its system wild type C57BL/6 mice. Conditions: rising doses (600 to 2400 mg/kg) for four months; cited from earlier work.

Consider `CCCCN1C[C@H](O)[C@@H](O)[C@H](O)[C@H]1CO` [N-butyldeoxynojirimycin], for which the “ratio of B to T cell populations in spleens and thymuses” value is “small decrease”; the “size of lymphoid organs” value is “reduced the size of lymphoid organs”.
